Results: article PMC7376950
No constants are given. Whether binding was seen depends on the method and setting. Binding seen in cells or lysates may run through a third protein. Some results given as binding are weak or reduced against the parent protein; the word gives no strength. Where a sequence is shown, tags or fusion partners need not be part of it.

Sequences of proteins named here, by UniProt entry; tags and fusion partners are left off.
UniProt P48432: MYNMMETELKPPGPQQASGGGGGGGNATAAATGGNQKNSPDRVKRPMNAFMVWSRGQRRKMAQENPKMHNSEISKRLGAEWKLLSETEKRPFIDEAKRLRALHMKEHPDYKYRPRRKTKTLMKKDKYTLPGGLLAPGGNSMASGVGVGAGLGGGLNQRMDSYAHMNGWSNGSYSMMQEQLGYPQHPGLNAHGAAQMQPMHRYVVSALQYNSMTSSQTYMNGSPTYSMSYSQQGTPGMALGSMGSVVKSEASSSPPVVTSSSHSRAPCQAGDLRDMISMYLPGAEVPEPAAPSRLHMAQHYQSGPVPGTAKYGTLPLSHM

Biological target: T1, Ddx56-GST (full-length mouse DEAD-box helicase 56, GST-tagged) (mouse) (UniProt Q9D0R4)
T1 sequence: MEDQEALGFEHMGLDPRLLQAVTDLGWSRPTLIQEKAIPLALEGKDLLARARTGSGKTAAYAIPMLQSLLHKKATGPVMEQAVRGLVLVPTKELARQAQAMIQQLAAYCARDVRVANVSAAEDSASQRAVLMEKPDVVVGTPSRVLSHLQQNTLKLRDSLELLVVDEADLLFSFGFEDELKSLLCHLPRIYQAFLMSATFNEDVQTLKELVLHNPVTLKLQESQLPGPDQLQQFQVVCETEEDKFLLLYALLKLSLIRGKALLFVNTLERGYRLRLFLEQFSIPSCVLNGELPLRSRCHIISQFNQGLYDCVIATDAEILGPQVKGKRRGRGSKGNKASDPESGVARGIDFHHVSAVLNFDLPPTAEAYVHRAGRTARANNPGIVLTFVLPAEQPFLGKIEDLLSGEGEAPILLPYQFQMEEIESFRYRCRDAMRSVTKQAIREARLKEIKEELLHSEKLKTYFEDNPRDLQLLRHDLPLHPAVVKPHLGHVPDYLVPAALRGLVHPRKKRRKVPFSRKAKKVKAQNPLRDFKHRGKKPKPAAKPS
Assay: pull-down; GST-tagged bait and SFB- or HA-tagged prey cotransfected into 293T cells; lysis in 1x NETN buffer (40 mM Tris-HCl pH 8.0, 100 mM NaCl, 0.5% NP40, 1 mM EDTA, 10% glycerol); Glutathione Sepharose 4B, 4 h at 4 °C; western blot (the paper also calls it co-IP)

| binding | Substance |
| --- | --- |
| binds | Sox2-HA (from UniProt P48432 1-319) |
| binds | Sox2-SFB (from UniProt P48432 1-319) |
